Experimental data reported in the supplement of paper PMC10849652.
Some of the results follow.

The chains behind the UniProt entries cited, without tags or fusion partners. Where a name states a change or a piece, a line headed by the entry shows the natural chain unless it says otherwise.
UniProt P28749: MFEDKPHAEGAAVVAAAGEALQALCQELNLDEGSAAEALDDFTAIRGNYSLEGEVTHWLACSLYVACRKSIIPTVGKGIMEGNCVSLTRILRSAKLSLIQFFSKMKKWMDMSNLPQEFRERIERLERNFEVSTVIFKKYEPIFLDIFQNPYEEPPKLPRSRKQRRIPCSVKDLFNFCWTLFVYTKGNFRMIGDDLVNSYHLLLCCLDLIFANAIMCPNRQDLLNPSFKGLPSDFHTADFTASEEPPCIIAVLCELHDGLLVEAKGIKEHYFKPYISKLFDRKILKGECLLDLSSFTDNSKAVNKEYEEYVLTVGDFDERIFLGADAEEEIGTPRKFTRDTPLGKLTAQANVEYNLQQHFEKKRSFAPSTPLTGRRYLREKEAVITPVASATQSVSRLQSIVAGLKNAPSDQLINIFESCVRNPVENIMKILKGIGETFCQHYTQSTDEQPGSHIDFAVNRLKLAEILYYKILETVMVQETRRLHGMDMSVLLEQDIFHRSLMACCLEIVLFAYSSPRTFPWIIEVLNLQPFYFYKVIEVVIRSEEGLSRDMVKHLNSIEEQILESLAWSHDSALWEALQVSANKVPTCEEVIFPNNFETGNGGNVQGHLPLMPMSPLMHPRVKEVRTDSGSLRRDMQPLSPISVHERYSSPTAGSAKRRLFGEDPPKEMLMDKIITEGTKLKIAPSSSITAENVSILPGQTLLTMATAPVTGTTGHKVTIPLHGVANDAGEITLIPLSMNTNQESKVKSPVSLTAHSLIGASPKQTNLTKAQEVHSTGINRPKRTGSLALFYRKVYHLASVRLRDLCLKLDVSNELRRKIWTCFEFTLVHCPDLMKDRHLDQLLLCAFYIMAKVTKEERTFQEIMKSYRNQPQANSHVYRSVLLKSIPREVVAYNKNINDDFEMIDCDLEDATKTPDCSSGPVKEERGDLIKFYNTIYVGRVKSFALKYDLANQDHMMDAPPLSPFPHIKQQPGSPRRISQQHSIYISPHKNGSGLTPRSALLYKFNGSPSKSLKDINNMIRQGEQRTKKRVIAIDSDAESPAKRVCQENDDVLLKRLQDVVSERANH
UniProt Q09028, whole entry, looked up: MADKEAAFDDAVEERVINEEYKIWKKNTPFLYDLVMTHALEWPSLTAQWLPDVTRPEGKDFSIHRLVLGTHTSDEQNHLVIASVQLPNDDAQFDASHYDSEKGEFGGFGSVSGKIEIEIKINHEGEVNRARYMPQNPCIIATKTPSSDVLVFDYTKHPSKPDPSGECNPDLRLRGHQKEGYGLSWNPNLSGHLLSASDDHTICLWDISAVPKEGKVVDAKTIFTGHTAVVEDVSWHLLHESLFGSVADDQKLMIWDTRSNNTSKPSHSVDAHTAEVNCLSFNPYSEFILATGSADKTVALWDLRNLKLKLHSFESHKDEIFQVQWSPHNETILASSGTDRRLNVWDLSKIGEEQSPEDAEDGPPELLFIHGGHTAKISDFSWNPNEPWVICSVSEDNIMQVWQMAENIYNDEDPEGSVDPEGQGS
UniProt Q9UKL0, whole entry, looked up: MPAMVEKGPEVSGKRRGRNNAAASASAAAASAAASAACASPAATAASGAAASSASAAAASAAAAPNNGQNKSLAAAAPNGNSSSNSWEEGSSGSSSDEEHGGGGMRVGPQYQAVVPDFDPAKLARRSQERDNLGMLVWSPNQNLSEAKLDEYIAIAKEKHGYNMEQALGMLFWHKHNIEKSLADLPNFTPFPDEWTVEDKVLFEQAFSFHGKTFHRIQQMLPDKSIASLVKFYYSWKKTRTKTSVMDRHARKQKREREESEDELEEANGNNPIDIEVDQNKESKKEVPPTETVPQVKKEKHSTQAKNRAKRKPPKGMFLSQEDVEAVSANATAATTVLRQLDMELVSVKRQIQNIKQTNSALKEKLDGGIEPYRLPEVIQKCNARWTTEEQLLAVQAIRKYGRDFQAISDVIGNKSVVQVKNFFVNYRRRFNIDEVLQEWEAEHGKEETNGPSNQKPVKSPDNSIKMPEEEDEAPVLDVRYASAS
UniProt Q9NW13: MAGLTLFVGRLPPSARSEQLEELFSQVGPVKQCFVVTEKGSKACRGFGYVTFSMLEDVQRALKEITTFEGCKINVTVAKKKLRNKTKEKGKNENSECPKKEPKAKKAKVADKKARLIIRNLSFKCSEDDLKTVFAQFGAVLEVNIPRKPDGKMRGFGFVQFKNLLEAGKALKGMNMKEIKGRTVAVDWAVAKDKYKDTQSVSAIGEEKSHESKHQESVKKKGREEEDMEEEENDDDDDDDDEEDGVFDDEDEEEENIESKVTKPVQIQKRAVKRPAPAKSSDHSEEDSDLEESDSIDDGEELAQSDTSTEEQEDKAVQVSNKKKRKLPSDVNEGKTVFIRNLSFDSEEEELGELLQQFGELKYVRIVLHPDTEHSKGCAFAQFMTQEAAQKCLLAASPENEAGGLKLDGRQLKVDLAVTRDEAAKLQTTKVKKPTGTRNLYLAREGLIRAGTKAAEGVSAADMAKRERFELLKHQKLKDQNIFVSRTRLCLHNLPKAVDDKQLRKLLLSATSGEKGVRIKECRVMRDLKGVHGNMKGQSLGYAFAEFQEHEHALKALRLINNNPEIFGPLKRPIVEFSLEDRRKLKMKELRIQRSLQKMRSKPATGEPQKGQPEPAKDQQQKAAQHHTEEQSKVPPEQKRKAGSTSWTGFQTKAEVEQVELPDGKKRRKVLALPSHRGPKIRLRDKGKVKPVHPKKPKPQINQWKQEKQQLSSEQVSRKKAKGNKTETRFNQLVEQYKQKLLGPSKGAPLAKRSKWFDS
UniProt Q14498: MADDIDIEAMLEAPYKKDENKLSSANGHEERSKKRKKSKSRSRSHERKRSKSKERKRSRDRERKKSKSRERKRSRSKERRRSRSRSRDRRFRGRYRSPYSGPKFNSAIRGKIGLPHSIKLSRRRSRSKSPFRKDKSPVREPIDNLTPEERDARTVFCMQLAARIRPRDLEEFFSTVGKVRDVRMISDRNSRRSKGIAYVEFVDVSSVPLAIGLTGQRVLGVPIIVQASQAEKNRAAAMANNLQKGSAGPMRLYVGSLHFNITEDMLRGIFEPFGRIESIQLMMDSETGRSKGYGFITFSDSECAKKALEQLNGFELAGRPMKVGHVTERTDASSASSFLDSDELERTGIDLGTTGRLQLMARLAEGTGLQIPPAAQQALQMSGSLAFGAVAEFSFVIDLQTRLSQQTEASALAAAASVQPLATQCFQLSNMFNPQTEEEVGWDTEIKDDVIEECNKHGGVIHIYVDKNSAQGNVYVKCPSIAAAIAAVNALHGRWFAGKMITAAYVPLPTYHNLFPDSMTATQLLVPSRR
UniProt P51606: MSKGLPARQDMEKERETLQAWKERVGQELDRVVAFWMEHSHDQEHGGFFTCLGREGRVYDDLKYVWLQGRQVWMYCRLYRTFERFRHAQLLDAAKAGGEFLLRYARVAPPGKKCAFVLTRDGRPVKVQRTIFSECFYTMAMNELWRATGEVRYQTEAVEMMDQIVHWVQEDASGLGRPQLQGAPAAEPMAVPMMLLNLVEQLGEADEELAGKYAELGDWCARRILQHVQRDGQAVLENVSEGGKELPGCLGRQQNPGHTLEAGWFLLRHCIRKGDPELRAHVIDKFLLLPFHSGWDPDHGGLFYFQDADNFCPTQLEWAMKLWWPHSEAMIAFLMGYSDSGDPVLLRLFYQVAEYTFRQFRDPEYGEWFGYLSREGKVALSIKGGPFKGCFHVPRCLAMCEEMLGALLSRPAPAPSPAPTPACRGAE
UniProt Q96D71: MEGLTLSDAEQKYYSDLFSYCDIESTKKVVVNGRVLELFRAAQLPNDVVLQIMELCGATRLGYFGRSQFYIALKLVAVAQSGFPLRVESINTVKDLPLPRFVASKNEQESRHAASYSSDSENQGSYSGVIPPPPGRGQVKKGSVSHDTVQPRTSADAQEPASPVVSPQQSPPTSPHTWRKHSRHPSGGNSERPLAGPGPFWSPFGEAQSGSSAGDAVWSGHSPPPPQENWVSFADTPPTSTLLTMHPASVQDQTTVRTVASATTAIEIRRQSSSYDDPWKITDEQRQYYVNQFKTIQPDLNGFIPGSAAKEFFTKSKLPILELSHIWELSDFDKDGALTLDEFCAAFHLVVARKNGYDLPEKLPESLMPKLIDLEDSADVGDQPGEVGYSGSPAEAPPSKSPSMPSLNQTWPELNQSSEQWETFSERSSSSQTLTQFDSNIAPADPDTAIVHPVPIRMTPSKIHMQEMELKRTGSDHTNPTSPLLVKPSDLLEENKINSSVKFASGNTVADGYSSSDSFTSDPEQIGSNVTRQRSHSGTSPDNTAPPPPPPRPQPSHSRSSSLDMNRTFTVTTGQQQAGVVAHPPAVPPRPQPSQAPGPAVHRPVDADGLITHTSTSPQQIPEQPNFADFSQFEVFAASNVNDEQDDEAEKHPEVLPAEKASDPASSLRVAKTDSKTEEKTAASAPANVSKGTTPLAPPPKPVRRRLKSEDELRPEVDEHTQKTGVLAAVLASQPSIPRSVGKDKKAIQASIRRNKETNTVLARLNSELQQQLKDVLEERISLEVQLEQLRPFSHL
UniProt Q8TAC1: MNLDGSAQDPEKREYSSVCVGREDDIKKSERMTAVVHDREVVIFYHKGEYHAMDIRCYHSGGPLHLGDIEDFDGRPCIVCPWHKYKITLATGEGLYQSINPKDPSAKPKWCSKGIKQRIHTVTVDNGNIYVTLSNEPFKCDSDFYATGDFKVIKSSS
UniProt Q9BTD8: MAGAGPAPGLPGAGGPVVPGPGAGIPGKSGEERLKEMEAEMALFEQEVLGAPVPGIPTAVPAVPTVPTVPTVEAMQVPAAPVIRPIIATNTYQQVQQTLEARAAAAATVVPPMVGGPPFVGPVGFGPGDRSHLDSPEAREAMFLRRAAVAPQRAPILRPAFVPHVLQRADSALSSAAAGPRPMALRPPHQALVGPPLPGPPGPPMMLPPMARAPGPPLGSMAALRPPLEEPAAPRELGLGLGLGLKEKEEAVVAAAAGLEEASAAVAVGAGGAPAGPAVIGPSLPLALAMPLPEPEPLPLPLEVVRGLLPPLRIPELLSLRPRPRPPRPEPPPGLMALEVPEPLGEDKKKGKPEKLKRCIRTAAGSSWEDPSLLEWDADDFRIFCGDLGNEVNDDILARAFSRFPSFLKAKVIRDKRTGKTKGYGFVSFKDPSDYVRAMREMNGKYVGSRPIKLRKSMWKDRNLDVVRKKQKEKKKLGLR
UniProt P53805: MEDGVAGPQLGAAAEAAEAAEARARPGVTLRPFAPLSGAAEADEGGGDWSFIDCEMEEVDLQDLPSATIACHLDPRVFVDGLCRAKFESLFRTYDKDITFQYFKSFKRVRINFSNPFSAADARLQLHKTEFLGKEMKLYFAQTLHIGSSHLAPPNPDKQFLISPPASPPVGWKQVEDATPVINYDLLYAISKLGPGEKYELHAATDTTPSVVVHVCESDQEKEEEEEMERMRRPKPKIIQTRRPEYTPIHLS
UniProt Q5T160: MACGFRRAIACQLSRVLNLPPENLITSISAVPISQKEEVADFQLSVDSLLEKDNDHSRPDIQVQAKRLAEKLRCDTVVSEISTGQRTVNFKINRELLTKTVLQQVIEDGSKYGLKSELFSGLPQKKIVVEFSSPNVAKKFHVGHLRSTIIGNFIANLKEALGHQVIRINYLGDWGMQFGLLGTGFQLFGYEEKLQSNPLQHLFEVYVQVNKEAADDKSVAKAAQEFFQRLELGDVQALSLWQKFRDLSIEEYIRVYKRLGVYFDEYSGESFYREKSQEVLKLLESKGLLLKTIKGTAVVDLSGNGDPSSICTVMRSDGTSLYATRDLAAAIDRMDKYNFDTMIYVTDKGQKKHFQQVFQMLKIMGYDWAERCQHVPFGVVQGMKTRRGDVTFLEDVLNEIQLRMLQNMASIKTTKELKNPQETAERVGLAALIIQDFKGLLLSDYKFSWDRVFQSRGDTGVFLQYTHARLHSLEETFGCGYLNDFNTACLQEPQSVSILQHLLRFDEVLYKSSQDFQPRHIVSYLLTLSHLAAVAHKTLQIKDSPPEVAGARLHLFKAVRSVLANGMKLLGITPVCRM
UniProt P48382: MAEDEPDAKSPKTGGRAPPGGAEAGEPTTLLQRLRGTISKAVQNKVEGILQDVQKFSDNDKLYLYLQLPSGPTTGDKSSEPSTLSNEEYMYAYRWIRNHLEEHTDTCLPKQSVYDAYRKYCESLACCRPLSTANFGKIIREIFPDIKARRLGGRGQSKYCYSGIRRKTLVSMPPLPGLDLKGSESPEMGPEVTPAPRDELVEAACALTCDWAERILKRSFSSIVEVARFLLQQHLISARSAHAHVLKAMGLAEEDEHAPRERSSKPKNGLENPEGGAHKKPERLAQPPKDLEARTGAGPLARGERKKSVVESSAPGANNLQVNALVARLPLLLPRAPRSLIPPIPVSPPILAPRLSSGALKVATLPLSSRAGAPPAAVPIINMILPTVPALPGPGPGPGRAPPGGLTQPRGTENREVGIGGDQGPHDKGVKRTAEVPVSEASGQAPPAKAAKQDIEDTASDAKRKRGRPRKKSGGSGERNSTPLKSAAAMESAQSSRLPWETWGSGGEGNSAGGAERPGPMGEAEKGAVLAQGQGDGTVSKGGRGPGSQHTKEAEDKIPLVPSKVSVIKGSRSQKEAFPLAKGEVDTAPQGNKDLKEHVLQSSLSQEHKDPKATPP

Each target was assayed with Cc1ccc(NC(=O)c2ccc(CN3CC[C@H](N(C)C)C3)c(C(F)(F)F)c2)cc1Nc1nccc(-c2cncnc2)n1 [bafetinib] (assay: log2 fold change, soluble protein after heating vs DMSO (PISA); higher = thermal stabilisation; K562 lysate, 10 uM; active = over 0.2 and 3.5 SD of the protein, either way, in both replicates (recomputed)).
Procedure, shortened: (§1)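 Log-two fold change in thermal stability relative to solvent controls is reported from duplicates. For each sample, crude K562 extract from dounce-homogenised pellets in PBS pH 7.4 with 1 mM MgCl2, at 1 mg/mL protein, was treated with 10 μM compound for 30 min. Aliquots heated for 3 min across 48°C-58°C were pooled, brought to 0.5% NP-40 at 4°C and cleared at 21,000xg for 90 min. The supernatant was quantified by TMTpro 16plex LC-MS/MS with channel sums equalised.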

log2 fold change, inactive:
RBL1 (UniProt P28749) -0.041
RBBP4 (UniProt Q09028) 0.036
RCOR1 (UniProt Q9UKL0) -0.056
RBM33 (UniProt Q96EV2) -0.041
RFX1 (UniProt P22670) -0.047
RBM28 (UniProt Q9NW13) -0.04
RAVER1 (UniProt E9PAU2) 0.039
RCSD1 (UniProt Q6JBY9) -0.033
RBM39 (UniProt Q14498) -0.054
RFT1 (UniProt Q96AA3) 0.055
RENBP (UniProt P51606) -0.023
RECQL5 (UniProt O94762) -0.062
RELN (UniProt P78509) -0.042
RFXAP (UniProt O00287) 0.066
RASA3 (UniProt Q14644) -0.198
REPS1 (UniProt Q96D71) -0.028
RBM3 (UniProt P98179) -0.026
RCN3 (UniProt Q96D15) 0.013
RASA2 (UniProt Q15283) -0.078
RFESD isoform 2 (UniProt Q8TAC1) -0.047
RBM42 (UniProt Q9BTD8) 0.083
RASA1 (UniProt P20936) -0.016
RBMX (UniProt P38159) 0.068
RCOR3 isoform 3 (UniProt Q9P2K3) -0.035
REEP6 (UniProt Q96HR9) -0.031
RCC1L (UniProt Q96I51) 0.031
RDH10 (UniProt Q8IZV5) 0.001
RERE (UniProt Q9P2R6) -0.059
RCAN1 (UniProt P53805) 0.123
RARS2 (UniProt Q5T160) -0.043
RGS10 (UniProt O43665) 0.039
RFX5 (UniProt P48382) -0.016

These targets were tested with Cc1cccc(CC(=O)N2CCc3c2ccc(-c2cn(C)c4ncnc(N)c24)c3F)n1 in the same assay as above.
Procedure, shortened: as §1

log2 fold change, inactive:
RBL1 (UniProt P28749) 0.049
RBBP4 (UniProt Q09028) 0.023
RCOR1 (UniProt Q9UKL0) 0.041
RBM33 (UniProt Q96EV2) -0.028
RFX1 (UniProt P22670) -0.001
RBM28 (UniProt Q9NW13) 0.024
RAVER1 (UniProt E9PAU2) -0.002
RCSD1 (UniProt Q6JBY9) 0.004
RBM39 (UniProt Q14498) 0.123
RFT1 (UniProt Q96AA3) -0.002
RENBP (UniProt P51606) 0.028
RECQL5 (UniProt O94762) -0.09
RELN (UniProt P78509) 0.08
RFXAP (UniProt O00287) 0.057
RASA3 (UniProt Q14644) 0.005
REPS1 (UniProt Q96D71) 0.064
RBM3 (UniProt P98179) -0.113
RCN3 (UniProt Q96D15) -0.022
RASA2 (UniProt Q15283) 0.096
RFESD isoform 2 (UniProt Q8TAC1) -0.017
RBM42 (UniProt Q9BTD8) -0.01
RASA1 (UniProt P20936) -0.001
RBMX (UniProt P38159) 0.022
RCOR3 isoform 3 (UniProt Q9P2K3) 0.004
REEP6 (UniProt Q96HR9) 0.078
RCC1L (UniProt Q96I51) 0.033
RDH10 (UniProt Q8IZV5) 0.043
RERE (UniProt Q9P2R6) 0.203
RCAN1 (UniProt P53805) -0.03
RARS2 (UniProt Q5T160) 0.023
RGS10 (UniProt O43665) -0.062
RFX5 (UniProt P48382) 0.055
